Data: PMC4405365
Results are given in words; binding and its absence hold for the method and conditions named. Binding seen in cells or lysates may run through a third protein. Some binding calls cover weakened binding; strength is not graded here. For part of these data: Sequences can lack the tags named with a protein.

Sequences of proteins named here, by UniProt entry; tags and fusion partners are left off. Residues count along the entry.
UniProt P07825: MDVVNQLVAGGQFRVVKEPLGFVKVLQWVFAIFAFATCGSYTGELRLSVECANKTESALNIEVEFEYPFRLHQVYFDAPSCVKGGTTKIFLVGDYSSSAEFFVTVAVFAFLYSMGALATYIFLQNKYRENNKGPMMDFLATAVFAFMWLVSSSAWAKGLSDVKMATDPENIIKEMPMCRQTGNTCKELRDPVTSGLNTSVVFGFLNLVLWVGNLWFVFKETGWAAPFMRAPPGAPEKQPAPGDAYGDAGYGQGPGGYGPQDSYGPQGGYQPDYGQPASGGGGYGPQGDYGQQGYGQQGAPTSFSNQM
UniProt Q8BPM0, residues 428-1076: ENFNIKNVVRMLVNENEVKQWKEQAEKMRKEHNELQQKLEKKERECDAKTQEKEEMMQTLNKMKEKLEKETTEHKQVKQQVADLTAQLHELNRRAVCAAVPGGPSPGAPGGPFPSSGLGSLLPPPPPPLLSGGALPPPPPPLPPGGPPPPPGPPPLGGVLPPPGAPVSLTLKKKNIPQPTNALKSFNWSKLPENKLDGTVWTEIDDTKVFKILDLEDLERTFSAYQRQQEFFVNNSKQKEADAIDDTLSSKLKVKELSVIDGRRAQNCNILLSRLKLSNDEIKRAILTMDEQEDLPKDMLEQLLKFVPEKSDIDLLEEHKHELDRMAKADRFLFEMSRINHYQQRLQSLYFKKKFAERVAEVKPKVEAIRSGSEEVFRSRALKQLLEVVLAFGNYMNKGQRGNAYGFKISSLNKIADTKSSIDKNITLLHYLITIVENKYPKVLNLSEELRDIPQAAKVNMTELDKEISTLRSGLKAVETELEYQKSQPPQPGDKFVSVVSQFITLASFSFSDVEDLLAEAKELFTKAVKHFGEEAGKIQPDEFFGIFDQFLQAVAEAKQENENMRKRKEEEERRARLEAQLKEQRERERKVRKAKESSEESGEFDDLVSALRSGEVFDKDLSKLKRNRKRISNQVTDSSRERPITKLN
UniProt O88778: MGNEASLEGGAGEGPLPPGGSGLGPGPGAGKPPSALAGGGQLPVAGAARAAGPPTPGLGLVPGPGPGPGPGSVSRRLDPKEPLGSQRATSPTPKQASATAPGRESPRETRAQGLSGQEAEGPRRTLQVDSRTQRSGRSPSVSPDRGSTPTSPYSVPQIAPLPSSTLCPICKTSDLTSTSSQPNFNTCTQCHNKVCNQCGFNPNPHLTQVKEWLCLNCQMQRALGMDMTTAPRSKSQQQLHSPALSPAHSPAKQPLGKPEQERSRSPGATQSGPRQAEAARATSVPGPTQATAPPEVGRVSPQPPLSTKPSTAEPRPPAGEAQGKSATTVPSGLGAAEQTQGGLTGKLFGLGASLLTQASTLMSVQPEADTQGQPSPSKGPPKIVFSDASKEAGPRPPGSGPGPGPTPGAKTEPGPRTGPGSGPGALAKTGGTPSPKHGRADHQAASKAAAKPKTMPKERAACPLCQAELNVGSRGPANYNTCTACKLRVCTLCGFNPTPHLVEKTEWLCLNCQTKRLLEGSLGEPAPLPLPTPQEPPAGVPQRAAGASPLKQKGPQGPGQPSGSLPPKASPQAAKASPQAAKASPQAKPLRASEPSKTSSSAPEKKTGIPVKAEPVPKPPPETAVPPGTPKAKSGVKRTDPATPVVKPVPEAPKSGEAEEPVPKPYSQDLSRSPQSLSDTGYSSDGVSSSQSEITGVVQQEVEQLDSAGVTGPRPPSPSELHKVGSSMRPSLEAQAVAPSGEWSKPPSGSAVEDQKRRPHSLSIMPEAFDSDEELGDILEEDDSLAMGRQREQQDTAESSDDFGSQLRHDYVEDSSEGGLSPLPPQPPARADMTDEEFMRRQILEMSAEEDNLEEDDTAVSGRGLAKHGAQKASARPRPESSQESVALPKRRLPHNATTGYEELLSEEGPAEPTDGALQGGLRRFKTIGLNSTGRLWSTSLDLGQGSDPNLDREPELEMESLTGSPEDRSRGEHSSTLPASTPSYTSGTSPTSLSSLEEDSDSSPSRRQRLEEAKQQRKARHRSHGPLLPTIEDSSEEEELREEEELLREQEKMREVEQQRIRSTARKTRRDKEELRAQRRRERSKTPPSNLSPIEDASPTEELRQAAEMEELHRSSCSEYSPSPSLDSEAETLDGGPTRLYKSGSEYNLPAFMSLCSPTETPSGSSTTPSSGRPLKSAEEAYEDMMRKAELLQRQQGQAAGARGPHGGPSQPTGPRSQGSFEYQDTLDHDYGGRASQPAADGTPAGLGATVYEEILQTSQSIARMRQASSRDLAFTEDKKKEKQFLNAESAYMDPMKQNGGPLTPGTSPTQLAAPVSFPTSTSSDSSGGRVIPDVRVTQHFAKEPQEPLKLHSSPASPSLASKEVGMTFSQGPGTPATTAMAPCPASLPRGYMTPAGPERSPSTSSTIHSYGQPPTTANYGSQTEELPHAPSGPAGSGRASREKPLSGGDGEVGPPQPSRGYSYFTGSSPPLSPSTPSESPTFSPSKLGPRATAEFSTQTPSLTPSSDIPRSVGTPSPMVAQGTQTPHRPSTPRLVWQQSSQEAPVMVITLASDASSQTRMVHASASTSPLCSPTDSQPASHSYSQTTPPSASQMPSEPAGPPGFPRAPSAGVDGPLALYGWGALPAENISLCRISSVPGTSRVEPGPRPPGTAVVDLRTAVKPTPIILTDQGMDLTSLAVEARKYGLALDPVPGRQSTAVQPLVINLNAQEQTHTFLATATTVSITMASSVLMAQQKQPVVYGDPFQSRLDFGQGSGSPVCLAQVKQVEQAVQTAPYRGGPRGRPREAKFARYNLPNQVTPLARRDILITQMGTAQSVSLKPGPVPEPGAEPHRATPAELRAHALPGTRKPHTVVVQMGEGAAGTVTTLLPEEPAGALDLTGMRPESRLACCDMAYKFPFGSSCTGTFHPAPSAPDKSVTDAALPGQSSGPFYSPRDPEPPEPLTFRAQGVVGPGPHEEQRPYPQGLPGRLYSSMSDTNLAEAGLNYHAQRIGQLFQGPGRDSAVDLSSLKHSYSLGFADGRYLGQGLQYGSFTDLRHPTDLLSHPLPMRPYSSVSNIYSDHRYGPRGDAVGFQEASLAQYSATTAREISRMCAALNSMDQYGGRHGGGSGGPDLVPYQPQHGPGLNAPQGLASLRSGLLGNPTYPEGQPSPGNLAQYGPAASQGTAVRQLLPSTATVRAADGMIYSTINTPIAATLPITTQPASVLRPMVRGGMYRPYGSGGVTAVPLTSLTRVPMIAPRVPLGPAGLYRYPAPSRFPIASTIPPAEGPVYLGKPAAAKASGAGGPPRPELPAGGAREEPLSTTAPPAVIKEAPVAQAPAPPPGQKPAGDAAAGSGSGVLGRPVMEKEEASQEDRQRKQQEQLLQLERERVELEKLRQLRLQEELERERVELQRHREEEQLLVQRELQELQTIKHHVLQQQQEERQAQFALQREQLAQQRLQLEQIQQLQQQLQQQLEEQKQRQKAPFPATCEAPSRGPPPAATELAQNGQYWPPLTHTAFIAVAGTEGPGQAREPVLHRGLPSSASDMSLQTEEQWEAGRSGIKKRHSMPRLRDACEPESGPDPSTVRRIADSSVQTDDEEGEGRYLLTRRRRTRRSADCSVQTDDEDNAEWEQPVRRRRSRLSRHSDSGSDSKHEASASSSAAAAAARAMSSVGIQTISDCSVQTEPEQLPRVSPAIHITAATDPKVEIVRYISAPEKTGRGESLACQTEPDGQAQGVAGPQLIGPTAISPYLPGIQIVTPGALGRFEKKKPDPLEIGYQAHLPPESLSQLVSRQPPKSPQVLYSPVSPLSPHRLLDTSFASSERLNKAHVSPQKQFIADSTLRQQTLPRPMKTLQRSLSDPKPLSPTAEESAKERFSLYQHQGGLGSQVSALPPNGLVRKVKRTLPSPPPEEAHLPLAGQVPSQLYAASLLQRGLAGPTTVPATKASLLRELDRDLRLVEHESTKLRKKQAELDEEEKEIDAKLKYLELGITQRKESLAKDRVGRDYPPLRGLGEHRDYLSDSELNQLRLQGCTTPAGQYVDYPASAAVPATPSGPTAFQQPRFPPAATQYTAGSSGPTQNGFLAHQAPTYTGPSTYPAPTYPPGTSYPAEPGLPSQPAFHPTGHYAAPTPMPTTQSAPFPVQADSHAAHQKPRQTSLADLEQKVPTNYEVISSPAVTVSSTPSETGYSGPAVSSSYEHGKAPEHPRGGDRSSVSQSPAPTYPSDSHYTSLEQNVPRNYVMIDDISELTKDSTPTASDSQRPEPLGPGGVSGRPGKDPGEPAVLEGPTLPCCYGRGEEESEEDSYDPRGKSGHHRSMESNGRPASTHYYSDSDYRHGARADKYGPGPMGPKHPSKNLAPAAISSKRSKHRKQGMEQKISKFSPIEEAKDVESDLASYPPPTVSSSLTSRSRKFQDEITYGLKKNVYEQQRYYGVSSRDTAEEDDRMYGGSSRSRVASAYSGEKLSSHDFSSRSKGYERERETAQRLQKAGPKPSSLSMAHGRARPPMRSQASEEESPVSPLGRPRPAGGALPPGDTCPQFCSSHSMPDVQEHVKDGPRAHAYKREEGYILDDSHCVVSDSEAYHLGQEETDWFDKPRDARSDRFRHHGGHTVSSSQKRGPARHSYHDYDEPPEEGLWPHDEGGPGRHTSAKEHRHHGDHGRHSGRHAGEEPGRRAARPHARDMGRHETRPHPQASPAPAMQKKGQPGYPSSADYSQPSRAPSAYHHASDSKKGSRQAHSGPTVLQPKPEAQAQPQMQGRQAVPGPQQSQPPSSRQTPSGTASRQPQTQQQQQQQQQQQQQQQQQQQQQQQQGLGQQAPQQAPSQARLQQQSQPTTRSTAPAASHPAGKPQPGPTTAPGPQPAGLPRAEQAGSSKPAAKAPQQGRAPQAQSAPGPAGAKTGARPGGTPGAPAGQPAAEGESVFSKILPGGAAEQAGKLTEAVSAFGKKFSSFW

Tests used:
[1] = target: Piccolo (rat (endogenous in P4 rat brain)) (UniProt Q9JKS6); experiment: co-IP; Piccolo precipitated with a rabbit polyclonal antibody against Piccolo residues 1980-2553 and Protein A/G beads from the P2 light membrane fraction of P4 rat brain solubilised in 1x PBS with 1% Triton X-100, 4°C; Western blot; normal rabbit IgG as control
EGFP-Pclo_(1980-2553) = target: T1, EGFP-Pclo_(1980-2553) (UniProt Q9JKS6); experiment: co-IP; COS7 cells co-transfected, lysed in 1% Triton X-100 in 1X PBS with protease inhibitors, 4°C; EGFP antibody or Piccolo 1980-2553 antibody with Protein A/G; Western blot
T1 sequence: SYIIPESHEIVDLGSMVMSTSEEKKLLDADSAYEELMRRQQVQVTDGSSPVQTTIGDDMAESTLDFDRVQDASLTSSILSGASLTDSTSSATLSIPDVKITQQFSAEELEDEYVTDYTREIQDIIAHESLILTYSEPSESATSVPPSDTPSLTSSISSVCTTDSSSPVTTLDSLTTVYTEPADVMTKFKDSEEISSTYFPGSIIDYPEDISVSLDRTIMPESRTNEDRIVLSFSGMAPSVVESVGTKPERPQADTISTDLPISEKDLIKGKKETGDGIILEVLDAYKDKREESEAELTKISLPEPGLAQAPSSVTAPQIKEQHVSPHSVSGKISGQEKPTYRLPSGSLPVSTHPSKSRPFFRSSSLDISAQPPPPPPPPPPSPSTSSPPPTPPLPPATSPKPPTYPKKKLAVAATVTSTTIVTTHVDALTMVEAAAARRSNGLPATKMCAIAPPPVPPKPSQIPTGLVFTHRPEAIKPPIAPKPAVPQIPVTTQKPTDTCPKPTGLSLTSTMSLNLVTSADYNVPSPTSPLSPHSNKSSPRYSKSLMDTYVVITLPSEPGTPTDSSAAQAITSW

binding [1] | binding (EGFP-Pclo_(1980-2553)) | Substance
no binding |  | Synaptophysin (from UniProt P07825 1-307)
 | binds | Myc-C-Daam1 (from UniProt Q8BPM0 428-1076) (domain or fragment)
binds |  | Bassoon (from UniProt O88778 1-3938)
